The results in this text go back to paper PMC3991325.

The chains behind the UniProt entries cited, without tags or fusion partners.
UniProt Q05022: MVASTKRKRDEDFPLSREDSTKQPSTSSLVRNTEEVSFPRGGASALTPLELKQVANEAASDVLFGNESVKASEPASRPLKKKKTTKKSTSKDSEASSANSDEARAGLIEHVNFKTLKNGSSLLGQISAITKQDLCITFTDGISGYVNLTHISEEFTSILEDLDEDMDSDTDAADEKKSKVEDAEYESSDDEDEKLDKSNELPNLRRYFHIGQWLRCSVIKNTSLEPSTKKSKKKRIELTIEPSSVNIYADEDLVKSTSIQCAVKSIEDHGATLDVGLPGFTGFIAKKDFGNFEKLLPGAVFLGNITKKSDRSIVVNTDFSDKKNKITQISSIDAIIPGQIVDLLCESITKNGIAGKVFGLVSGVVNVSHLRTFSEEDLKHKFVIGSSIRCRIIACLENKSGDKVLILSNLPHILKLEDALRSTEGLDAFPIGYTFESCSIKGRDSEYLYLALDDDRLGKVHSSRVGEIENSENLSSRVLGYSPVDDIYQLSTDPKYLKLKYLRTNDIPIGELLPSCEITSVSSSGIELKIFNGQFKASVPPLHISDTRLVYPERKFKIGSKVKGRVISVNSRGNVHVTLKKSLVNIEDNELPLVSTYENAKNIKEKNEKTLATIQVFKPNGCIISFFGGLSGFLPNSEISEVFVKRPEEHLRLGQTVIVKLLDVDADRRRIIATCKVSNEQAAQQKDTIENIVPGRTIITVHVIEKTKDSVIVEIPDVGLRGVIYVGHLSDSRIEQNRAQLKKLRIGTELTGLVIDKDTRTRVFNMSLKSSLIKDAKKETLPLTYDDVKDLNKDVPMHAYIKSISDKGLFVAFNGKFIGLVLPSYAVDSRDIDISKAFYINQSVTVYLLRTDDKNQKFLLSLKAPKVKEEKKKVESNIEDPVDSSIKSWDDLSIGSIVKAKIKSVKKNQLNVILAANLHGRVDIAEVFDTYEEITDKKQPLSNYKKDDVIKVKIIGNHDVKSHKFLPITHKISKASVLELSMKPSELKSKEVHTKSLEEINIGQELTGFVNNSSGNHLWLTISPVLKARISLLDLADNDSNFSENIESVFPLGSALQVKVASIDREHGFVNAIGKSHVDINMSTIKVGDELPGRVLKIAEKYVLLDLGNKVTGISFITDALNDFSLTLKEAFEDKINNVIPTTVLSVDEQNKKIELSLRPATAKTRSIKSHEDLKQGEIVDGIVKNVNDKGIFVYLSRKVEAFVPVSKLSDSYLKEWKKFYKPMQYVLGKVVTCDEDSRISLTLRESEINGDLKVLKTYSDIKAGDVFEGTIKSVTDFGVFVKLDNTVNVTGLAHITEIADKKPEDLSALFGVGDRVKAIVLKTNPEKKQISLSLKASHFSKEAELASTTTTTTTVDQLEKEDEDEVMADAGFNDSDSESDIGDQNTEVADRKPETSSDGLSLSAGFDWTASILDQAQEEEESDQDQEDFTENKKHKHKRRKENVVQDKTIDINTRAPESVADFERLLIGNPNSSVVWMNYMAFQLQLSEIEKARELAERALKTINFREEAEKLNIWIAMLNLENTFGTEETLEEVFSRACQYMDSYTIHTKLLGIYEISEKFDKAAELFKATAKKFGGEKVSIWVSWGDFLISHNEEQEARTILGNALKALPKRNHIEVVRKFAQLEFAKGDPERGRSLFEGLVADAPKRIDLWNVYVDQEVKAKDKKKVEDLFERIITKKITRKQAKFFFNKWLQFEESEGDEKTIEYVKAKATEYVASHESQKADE
UniProt Q12460: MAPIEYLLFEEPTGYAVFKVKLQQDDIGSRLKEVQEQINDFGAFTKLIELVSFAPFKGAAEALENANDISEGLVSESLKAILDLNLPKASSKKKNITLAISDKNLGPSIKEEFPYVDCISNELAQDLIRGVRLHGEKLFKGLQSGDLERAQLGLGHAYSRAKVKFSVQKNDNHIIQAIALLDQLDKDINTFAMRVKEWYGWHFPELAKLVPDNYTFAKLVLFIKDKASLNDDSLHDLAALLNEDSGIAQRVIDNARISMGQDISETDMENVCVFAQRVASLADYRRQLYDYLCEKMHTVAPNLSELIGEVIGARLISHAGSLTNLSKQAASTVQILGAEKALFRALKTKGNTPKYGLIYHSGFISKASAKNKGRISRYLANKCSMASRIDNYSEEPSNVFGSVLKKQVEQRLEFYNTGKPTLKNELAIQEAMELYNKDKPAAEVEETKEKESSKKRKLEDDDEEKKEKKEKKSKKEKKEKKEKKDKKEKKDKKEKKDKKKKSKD
UniProt P14120: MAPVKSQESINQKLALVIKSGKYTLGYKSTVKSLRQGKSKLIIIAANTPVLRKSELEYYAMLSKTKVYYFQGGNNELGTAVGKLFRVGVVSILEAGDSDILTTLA
UniProt P15646: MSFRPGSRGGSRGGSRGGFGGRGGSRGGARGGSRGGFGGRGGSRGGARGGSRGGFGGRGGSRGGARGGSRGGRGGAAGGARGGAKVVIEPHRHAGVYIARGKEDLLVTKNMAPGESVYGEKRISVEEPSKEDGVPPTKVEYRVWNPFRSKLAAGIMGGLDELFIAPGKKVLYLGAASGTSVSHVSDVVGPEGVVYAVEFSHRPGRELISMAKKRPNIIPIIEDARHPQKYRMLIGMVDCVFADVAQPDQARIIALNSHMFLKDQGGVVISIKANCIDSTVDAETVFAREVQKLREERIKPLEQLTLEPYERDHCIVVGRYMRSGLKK
UniProt Q3E757: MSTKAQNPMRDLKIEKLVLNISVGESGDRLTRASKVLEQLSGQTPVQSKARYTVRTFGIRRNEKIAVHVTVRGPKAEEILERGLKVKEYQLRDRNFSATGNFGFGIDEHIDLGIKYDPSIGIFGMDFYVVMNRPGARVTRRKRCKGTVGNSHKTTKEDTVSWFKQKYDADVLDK
UniProt P46654: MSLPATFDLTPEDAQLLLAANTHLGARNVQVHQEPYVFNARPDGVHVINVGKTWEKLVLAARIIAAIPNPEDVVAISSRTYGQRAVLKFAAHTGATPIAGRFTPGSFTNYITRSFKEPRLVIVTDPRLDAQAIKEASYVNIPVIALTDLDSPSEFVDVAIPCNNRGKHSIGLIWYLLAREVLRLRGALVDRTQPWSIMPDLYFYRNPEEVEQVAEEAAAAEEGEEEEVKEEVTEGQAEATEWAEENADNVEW
UniProt P42945: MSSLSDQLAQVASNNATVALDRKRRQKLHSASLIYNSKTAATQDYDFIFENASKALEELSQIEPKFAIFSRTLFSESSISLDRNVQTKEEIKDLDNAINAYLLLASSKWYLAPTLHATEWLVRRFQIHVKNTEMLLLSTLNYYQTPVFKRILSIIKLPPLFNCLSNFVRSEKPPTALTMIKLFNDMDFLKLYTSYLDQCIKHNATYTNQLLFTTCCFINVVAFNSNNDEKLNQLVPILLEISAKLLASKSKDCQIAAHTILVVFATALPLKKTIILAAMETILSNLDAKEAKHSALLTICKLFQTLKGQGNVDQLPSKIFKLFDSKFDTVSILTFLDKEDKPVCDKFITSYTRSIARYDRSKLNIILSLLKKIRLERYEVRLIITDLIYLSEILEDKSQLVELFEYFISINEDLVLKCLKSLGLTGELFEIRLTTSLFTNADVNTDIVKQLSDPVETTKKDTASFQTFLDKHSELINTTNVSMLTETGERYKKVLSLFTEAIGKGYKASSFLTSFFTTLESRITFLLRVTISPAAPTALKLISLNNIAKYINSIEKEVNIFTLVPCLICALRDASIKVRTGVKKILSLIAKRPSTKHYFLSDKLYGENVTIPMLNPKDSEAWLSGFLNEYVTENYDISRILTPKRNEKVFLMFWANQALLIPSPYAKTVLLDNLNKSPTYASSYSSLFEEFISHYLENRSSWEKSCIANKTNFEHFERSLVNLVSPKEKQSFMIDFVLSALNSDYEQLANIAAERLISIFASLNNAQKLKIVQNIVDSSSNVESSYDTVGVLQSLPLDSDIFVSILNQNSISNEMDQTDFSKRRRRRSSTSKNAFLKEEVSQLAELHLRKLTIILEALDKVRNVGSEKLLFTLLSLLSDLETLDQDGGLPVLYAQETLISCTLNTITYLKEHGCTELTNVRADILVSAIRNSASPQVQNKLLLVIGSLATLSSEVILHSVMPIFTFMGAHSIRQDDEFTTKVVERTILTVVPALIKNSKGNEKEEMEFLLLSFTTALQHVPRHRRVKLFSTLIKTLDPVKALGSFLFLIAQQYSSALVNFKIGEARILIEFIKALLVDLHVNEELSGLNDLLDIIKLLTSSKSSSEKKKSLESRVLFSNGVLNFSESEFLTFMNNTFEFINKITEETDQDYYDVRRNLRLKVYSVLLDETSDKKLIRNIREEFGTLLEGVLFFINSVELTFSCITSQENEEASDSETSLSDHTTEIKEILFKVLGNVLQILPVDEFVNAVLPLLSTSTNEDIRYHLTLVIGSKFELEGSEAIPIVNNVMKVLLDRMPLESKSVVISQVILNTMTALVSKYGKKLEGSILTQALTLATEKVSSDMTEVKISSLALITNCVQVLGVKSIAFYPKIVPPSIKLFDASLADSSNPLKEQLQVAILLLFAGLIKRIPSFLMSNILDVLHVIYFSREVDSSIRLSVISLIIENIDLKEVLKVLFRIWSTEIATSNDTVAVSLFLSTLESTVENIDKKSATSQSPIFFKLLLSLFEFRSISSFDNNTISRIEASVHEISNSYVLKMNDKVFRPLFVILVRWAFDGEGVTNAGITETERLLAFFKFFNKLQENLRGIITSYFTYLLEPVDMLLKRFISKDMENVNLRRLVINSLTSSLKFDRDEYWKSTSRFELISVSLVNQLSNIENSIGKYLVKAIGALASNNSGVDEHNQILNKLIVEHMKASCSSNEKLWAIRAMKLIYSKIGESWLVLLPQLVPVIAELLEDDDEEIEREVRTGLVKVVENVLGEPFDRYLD
UniProt P0CX44: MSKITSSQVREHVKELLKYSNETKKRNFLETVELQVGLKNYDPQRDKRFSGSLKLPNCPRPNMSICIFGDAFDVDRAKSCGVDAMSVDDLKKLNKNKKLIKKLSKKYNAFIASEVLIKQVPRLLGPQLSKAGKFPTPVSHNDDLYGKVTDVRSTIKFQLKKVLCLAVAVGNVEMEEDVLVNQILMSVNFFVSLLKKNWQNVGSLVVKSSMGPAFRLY
UniProt P53131: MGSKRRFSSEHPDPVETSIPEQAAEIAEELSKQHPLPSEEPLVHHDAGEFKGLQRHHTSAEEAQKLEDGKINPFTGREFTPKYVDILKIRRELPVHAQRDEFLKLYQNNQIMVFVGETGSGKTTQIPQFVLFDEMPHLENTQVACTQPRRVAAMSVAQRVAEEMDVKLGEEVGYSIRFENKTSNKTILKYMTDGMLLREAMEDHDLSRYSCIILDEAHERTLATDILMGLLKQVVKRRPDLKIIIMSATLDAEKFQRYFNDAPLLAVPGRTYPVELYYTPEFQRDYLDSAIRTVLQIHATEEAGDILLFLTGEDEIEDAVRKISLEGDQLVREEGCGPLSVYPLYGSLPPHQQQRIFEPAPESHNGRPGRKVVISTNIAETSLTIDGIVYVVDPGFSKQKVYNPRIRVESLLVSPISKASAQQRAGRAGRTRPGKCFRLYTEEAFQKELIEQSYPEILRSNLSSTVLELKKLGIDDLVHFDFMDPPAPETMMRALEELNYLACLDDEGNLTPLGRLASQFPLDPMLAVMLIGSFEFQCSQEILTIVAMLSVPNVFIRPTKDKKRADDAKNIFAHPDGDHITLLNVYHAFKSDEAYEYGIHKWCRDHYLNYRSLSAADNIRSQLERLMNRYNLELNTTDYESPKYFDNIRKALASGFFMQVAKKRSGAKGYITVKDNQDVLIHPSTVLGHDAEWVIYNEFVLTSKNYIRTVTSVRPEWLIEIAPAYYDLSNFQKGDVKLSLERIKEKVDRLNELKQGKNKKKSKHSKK
UniProt P10591: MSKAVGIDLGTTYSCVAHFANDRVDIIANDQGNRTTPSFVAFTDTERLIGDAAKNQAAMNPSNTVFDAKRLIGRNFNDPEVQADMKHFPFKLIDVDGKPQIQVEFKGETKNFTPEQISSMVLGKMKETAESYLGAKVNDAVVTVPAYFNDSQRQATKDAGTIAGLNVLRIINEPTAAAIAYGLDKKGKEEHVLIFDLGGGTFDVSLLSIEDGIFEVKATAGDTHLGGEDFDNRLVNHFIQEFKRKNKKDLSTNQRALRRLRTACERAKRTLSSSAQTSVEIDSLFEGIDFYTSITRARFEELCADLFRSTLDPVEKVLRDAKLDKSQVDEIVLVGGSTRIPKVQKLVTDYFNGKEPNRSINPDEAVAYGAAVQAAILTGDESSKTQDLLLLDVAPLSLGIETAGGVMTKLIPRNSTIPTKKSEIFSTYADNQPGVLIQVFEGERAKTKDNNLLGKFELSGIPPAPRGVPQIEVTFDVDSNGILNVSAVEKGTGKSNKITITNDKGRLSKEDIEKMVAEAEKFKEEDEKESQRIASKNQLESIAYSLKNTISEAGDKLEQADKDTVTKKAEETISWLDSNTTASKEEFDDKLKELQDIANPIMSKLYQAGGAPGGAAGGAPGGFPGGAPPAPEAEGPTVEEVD

The chains are these.
B1: Rrp12 (protein, UniProt Q12754 1-1228)
chain: MDQDKVAFLLELEDKLAKIRSQVNSKLENQKHIAIILTAVEENIAGQATNDVSKNIVNYIISFMSLLDQAVDPSTHEIKDIQLASSSTYLLDLIFHYSPKVLLRSKFSEILTKIAPCITAEKANAPLIRAAIGCLESLLIAQDAQAWNNTYDLNVTPKRGLQGILELSLDVRPKVRKRALDAVHAVLLNPPVAPTAEHVAAVFVADFCDKQLAGILNDLSNLSNKQLKAQKTKEDINASVMRSLRLITSVVSTGQWPSSQIEPLCDVLLGVTKSSEQYLVSASFECFESMFKTMAETTISSGLAENKYLRVLDTIFALKPSNVDTLLTKSWIAVVIKGMSTYATHQPLKALRKIPGVFHIMCTYLASETPEVYQAASQCLISILSESVKDDLLLYTPSVDEKVFKNVDEIISQIAKTFIDFLSIRYSHCSREILKILVAAFNKFRYRSNPHFLKSLKIVDTWRVNEEQFMDLRNEIELVIGASISAMGPEMILAEAPLNLDNPSSERPGRAWLLPLIRDYTKNANLATFQNELAPYIKSFQSKFDKVPEESIQLRVFQTIVDQIWSTLPRFCELPMDLRESFTDEFASELSSLLYSEVELRTTICHALKVLAESNVSYAEESSSHNVLLLQRFPISEAQKNIEYLSTKSTNLLAVLFNVYTQTTPNARSYILETIDQYLKITSKEDLEKTFNNVCGLLKNSMNEESSGNVNKEKKKPQLTATLLDLIICMITYLPVSSYSALFSMFSLTVNSADALIQKRAYRIITKLSELKSGSTAVAQFISDIENVMVDSASSVQTSAKAARLTAIKTIVELLPLDHLDFIVRTVAEVILSTKDVNEKSRETAFDTLICMGRKMNEPNGIIKLFQIPGYDPTTPDQSSSISEFFKIISAGLIGESQHMVSSSITGYACLVFEFKNELDSGILMDIYDTIELYLTSNSREIVKSAIGFTKVCVLGLPEELMRPKVPELLLKLLRWSHEHTGHFKAKVKHIIERLIRRFGYDYIEANFPEEDRRLLTNIRKMRNRNKRKDEEVTTGVSDVAATKGSRFMSAFDEAVYGSDEENDNGSDQEENVAGGKMKNGAKQFIVESGDNPLDLLDSQTLAHISSTRPKKFNKNQNRARFNDDAFNFDSEGKLVVKGQPKPSTNVDDPLSAVTSGINAYLEAVKSGPVRGQRNKLKFRKNGKDSDEFGDDDDGEKDSRLMRGRVNQGNKIGKHNKKGPKFKSRKKL
B2: Rok1 (protein, UniProt P45818 1-564)
chain: MDIFRVLTRGASVKKESGPKAKAADYSVINGNDENHKEDNNESQIVKELDFFRNKRIISKVEDDREKTTENDSPNKEEKSGNDDGLIKPVITNTVEASALRKSYKGNVSGIDIPLPIGSFEDLISRFSFDKRLLNNLIENGFTEPTPIQCECIPVALNNRDVLACGPTGSGKTLAFLIPLVQQIIDDKQTAGLKGLIISPTKELANQIFIECFKLSYKIFLEKKRPLQVALLSKSLGAKLKNKVVSDKKYDIIISTPLRLIDVVKNEALDLSKVKHLIFDEADKLFDKTFVEQSDDILSACREPSLRKAMFSATIPSNVEEIAQSIMMDPVRVIIGHKEAANTNIEQKLIFCGNEEGKLIAIRQLVQEGEFKPPIIIFLESITRAKALYHELMYDRINVDVIHAERTALQRDRIIERFKTGELWCLICTDVLARGIDFKGVNLVINYDVPGSSQAYVHRIGRTGRGGRSGKAITFYTKQDSVAIKPIINVMKQSGCEVSEWMDKMAKMTRKEKESIKNGKAHKERKQITTVPKMDKAKRRRQQEMIAASKRRKNEELSKKHFSK
B3: Bms1 (protein, UniProt Q08965 1-1183)
chain: MEQSNKQHRKAKEKNTAKKKLHTQGHNAKAFAVAAPGKMARTMQRSSDVNERKLHVPMVDRTPEDDPPPFIVAVVGPPGTGKTTLIRSLVRRMTKSTLNDIQGPITVVSGKHRRLTFLECPADDLNAMIDIAKIADLVLLLIDGNFGFEMETMEFLNIAQHHGMPRVLGVATHLDLFKSQSTLRASKKRLKHRFWTEVYQGAKLFYLSGVINGRYPDREILNLSRFISVMKFRPLKWRNEHPYMLADRFTDLTHPELIETQGLQIDRKVAIYGYLHGTPLPSAPGTRVHIAGVGDFSVAQIEKLPDPCPTPFYQQKLDDFEREKMKEEAKANGEITTASTTRRRKRLDDKDKLIYAPMSDVGGVLMDKDAVYIDIGKKNEEPSFVPGQERGEGEKLMTGLQSVEQSIAEKFDGVGLQLFSNGTELHEVADHEGMDVESGEESIEDDEGKSKGRTSLRKPRIYGKPVQEEDADIDNLPSDEEPYTNDDDVQDSEPRMVEIDFNNTGEQGAEKLALETDSEFEESEDEFSWERTAANKLKKTESKKRTWNIGKLIYMDNISPEECIRRWRGEDDDSKDESDIEEDVDDDFFRKKDGTVTKEGNKDHAVDLEKFVPYFDTFEKLAKKWKSVDAIKERFLGAGILGNDNKTKSDSNEGGEELYGDFEDLEDGNPSEQAEDNSDKESEDEDENEDTNGDDDNSFTNFDAEEKKDLTMEQEREMNAAKKEKLRAQFEIEEGENFKEDDENNEYDTWYELQKAKISKQLEINNIEYQEMTPEQRQRIEGFKAGSYVRIVFEKVPMEFVKNFNPKFPIVMGGLLPTEIKFGIVKARLRRHRWHKKILKTNDPLVLSLGWRRFQTLPIYTTTDSRTRTRMLKYTPEHTYCNAAFYGPLCSPNTPFCGVQIVANSDTGNGFRIAATGIVEEIDVNIEIVKKLKLVGFPYKIFKNTAFIKDMFSSAMEVARFEGAQIKTVSGIRGEIKRALSKPEGHYRAAFEDKILMSDIVILRSWYPVRVKKFYNPVTSLLLKEKTEWKGLRLTGQIRAAMNLETPSNPDSAYHKIERVERHFNGLKVPKAVQKELPFKSQIHQMKPQKKKTYMAKRAVVLGGDEKKARSFIQKVLTISKAKDSKRKEQKASQRKERLKKLAKMEEEKSQRDKEKKKEYFAQNGKRTTMGGDDESRPRKMRR

Results are given in words; binding and its absence hold for the method and conditions named. In cells and extracts the contact can be indirect. These calls come from enrichment with a bait or labelling near it, and not all partners need be listed.

In the assay the target is Rrp5-HTP (budding yeast) (UniProt Q05022). The assay is described as follows: affinity purification with mass spectrometry; Rrp5-HTP bound to an IgG column, RNase treatment, brief formaldehyde crosslinking on the column, washing under denaturing conditions (8 M urea), release by brief decrosslinking and SDS; the material migrating above Rrp5 in SDS-PAGE analysed by mass spectrometry; Brr2 as control bait.
With Nop56 (from UniProt Q12460 1-504), the binding result is on record as “binds”.

On to Rpl23 (from UniProt P0CX41 1-137), for which the binding result is listed as “binds”.

Take Eft1 (from UniProt P32324 1-842): the binding result was “binds”.

Turning to Ded1 (from UniProt P06634 1-604), the binding entry was “binds”.

For the molecule Rpl30 (from UniProt P14120 1-105), the binding entry is reported as “binds”.

In the case of Rps31 (from UniProt P05759), the binding entry is recorded as “binds”.

Turning to Nop1 (from UniProt P15646 1-327), the binding entry is listed as “binds”.

For Rpl11 (from UniProt Q3E757 1-174), the binding result is recorded as “binds”.

As to Rps0 (from UniProt P46654 1-252), the binding entry is on record as “binds”.

Regarding Utp10 (from UniProt P42945 1-1769), the binding entry is listed as “binds”.

Turning to Rpl1 (from UniProt P0CX44 1-217), the binding entry is listed as “binds”.

With Nop58 (from UniProt Q12499 1-511), the binding entry was “binds”.

Take Prp43 (from UniProt P53131 1-767): the binding entry is given as “binds”.

Take Ssa1 (from UniProt P10591 1-642): the binding entry is on record as “binds”.

In the case of Tef1 (from UniProt P02994 1-458), the binding result is recorded as “binds”.

Regarding Urb1 (from UniProt P34241 1-1764), the binding entry is “binds”.

For the molecule Rps22 (from UniProt P0C0W1 1-130), the binding result is recorded as “binds”.

For B1, the binding entry was “binds”.

For B2, the binding result is “binds”.

B3: the binding result is “binds”.
